Test results reported in publication PMC10163288.
This is one part of the list.

B1: il2ra_site1_2b5i_sap_13_mot_0e5a94e4a5addaac739760efb25f0f5d_0001_000000289_0001_18_32_H_._HHH_b1_05950_af2_0001_0000200006_0000001_0_0001_af2pred_0001_af2pred_ … (protein)
chain: SSSSDKDERVFELYREASRLFREGNPEEAREVLEEARELAEQAGNEVAVEDIERLLELLKSSSSS
B2: il2ra_site1_1z92_sap_20_mot_HHH_b1_00368_000000203_0001_23_39_H_._HHH_b1_05006_af2_0001_0000500048_0000001_0_0001_af2pred_0001_af2pred (protein)
chain: KADRRLVKRLLEEGIPPEEIAELLIKDSHDAGLVEQMIKALERKAEELNDPELERVARLLEELIK
B3: il2ra_site2_2erj_sap_20_mot_HHH_b1_05944_000000221_0001_38_56_H_._HHH_b2_03548_af2_0001_0000700027_0000001_0_0001 (protein)
chain: SSSSDEELEQVVEELHEEFNLSEAQKATLEHVLEVAREFGWSEETIERWLRIAAELDKEDSSSSS
B4: il2ra_site1_3nfp_normal_mot_HHH_b2_03420_af2_000000062_0001_42_56_H_._437ce1e4c44253f5d945988760af7e00_0001_af2_0001_0000600030_0000001_1_af2pred_0001_af2pred (protein)
chain: SAKEISRILRRLLQRVPPEVRKLLRRVLELLARGDPEEAEEVLREILELVGDPLVERLLELVEKL
B5: il2ra_site2_2erj_normal_mot_HHH_b2_06512_000000233_0001_19_37_H_._HEEHE_1265_0001_0000200003_0000001_0_af2pred_0001_af2pred (protein)
chain: DDEEAVRLSIELAAEHAGIPSIEVSVSNGEIEVRINGNDRAAKFVSLAAKFVAKALGLTVEVEVE
B6: il2ra_site1_3nfp_normal_mot_HHH_b2_02159_000000237_0001_1_17_H_._ems_3hM_790_af2_0001_0001000025_0000001_1_af2pred_0001_af2pred (protein)
chain: SSDEFLEELVERVEKLAEEKNDEEVKELAEQALRLFREAEEKKDHRASHEAIRIVAKLTLLVKSS
B7: il2ra_site1_2b5i_normal_mot_HHH_b1_01949_af2_000000041_0001_1_19_H_._HHH_b1_07462_af2_0001_0000300029_0000001_0_af2pred_0001_af2pred_1 (protein)
chain: SSSSSDIEELLELFREASELFRRGNPEEARKVLEEAIELAEELGDERALEDLRRFLEMAKSSSSS
B8: il2ra_site1_2b5i_sap_24_mot_352c4fd2a8aa45b61cc0090df3da36e7_0001_1_af2_000000070_0001_36_51_H_._678a1b28e3afbd0e6d42a78f97d9d1d3_0001_0001_0000100009_0000001_0 … (protein)
chain: SSSSDIAALVDAAIAAAEAAKAAGRKREALEILEAAAKAAGEAGDEAAEDRLYELARTIKSSSSS
B9: il2ra_site1_3nfp_normal_mot_44d7d87cef3b3f1636c8b2572508b1bf_0001_1_af2_000000239_0001_37_63_H_._HHH_b1_07852_af2_0001_0000100010_0000001_0 (protein)
chain: SSSSSSLKWLEENAEKAFENNDRHNLRALLKIVRRAIEIVGDPEAREVLKLIEELLERLKSSSSS
B10: il2ra_site2_3nfp_normal_mot_HHH_b1_04762_000000120_0001_42_54_H_._HHH_b1_04139_0001_0000300034_0000001_0 (protein)
chain: SSSSTLERMIELALRALEAAIKQGDEELARLSVEYIKAAILLLGDPELEEEVERLEEELNSSSSS
B11: il2ra_site2_3nfp_sap_25_mot_HHH_b2_02633_000000119_0001_1_18_H_._HHH_b1_07793_0001_0000100007_0000001_0_0001 (protein)
chain: SSSSSDEEVEEEVEELLERAKHIEDPFERFAVLADAMTLAVQNEDPELERLVREVIAKLSSSSSS
B12: il2ra_site1_1z92_sap_14_mot_HHH_b1_08075_000000018_0001_1_20_H_._HHH_b1_02177_0001_0000100015_0000001_0_0001 (protein)
chain: SSSSSSSTAAEYAEEMVELLARKNTEKARRQLEFILRAARLMGDEELEKLIERVLEELSSSSSSS
B13: il2ra_site1_1z92_normal_mot_HHH_b1_03515_000000289_0001_1_19_H_._HHH_b1_01341_af2_0001_0000100013_0000001_0 (protein)
chain: SSSSDQEERAARVIVKVLVRLAGLSEEQEEELRQLAEELVERGVDPLEIIKILDRLAAELGSSSS
B14: il2ra_site1_1z92_sap_20_mot_919c246ba0fc10ef4578bdc7f1052ff8_0001_af2_000000062_0001_37_52_H_._HHH_b1_07585_af2_0001_0000100004_0000001_0_0001 (protein)
chain: SSSDEERAEKNAEAIVRVLVRANRLSEEDEEKLQELAKELVERGVDQLEIIKILDEIAAQISSSS
B15: il2ra_site2_3nfp_sap_27_mot_HHH_b2_03087_000000007_0001_42_55_H_._ems_3hM_77_0001_0000400035_0000001_0_0001 (protein)
chain: SSSSDEEERAEELEEEIEKLLKEGDTYQAAQLIVELAELALKLNDPELVRAVLELYKLLKSSSSS
B16: il2ra_site1_2b5i_sap_30_mot_3e13e3ed3b6e195f81032bb5ce78c6bf_0001_1_af2_000000143_0001_17_32_H_._HHH_b1_06937_0001_0001200019_0000001_0_0001_af2pred_dldesign_0_ … (protein)
chain: SSSSDLRELVEALLAEAEELKAAGDLERAHKLLLLARRVARKADDPELVARVEARRAALGSSSSS
B17: il2ra_site1_1z92_sap_20_mot_2d21eb4e9c52d37fc3f75ebf2decd015_0001_1_af2_000000088_0001_37_51_H_._072deba08d558e8adcb5b16438222d5b_0001_0001_0000100007_0000001_0 … (protein)
chain: DHVAEQLREAVEKNDEELLREFIKIALEDAGDPRLVKQFLKDLVKRLGLPPEVLERLEELLEELT
B18: il2ra_site1_1z92_normal_mot_HHH_b1_02970_000000195_0001_43_56_H_._HHH_b1_05309_af2_0001_0000300028_0000001_0 (protein)
chain: SSSSSSDEDVERIMELFREAARIRDREEVRKLLEEALRLAEELGDEELRRDVEEYLRLLSSSSSS
B19: il2ra_site2_2erj_sap_19_mot_HHH_b1_02771_000000207_0001_1_20_H_._HHH_b1_04616_0001_0000400001_0000001_0_0001 (protein)
chain: SSSDMRRLYELLVRILRALAEGDPELAEELIEEARELIEELNSDTAREMLENLERLLEELRSSSS
B20: il2ra_site1_2b5i_normal_mot_22370d59370c406a0c205a431f537cfa_0001_af2_000000141_0001_1_31_H_._HHH_b1_02999_af2_0003_0000300026_0000001_0_af2pred_dldesign_0_af2p … (protein)
chain: SSSSKETAAAAAAIVEELEEKYGLTEEQYAALSRKAVELVWKGYSPEEIREILEAEAKKLSSSSS
B21: il2ra_site2_3nfp_normal_mot_HHH_b1_04537_af2_000000077_0001_1_18_H_._HHH_b2_05586_0001_0000500015_0000001_0 (protein)
chain: SSSSDREEAAQLLSEAFQLLQEGDPHEAEKLLEEAREIAEEAGDEQLLQAIEWALAAVKLYSSSS
B22: il2ra_site1_2b5i_sap_16_mot_HHH_b2_04373_af2_000000166_0001_1_14_H_._HHH_b1_00078_0001_0000500025_0000001_0_0001_af2pred_dldesign_0_af2pred (protein)
chain: SSSSSAARLARELFTKADEAYKAGEKEKAKELLEEALKIAEKNKMNTFIKIIKWALEEIKSSSSS
B23: il2ra_site1_1z92_normal_mot_HHH_b2_07758_000000290_0001_1_17_H_._HHH_b2_02649_0001_0000100014_0000001_0_af2pred_dldesign_0_af2pred (protein)
chain: SSSSSSGIDKAVRIAVEAAGLSAEDEERLRAEAKERLAKGMKKSDIYKWLNREASALAEKSSSSS
B24: il2ra_site1_1z92_sap_26_mot_HHH_b1_05862_af2_000000270_0001_22_38_H_._HHH_b1_08768_0001_0000100005_0000001_0_0001_af2pred_0001_af2pred (protein)
chain: SSSDERELTKFLSKLTARLRREFGLSKEQFEELARLILELLLKIPDPKEVEELAEEIAERLSSSS

Target: il2ra, P01589
Experiment: yeast display titration

Apparent Kd, inactive:
B1 no binding seen, B2 no binding seen, B3 no binding seen, B4 no binding seen, B5 no binding seen, B6 no binding seen, B7 no binding seen, B8 no binding seen, B9 no binding seen, B10 no binding seen, B11 no binding seen, B12 no binding seen, B13 no binding seen, B14 no binding seen, B15 no binding seen, B16 no binding seen, B17 no binding seen, B18 no binding seen, B19 no binding seen, B20 no binding seen, B21 no binding seen, B22 no binding seen, B23 no binding seen, B24 no binding seen
